Assay results as given in article PMC9844640.

By UniProt entry, the sequences of proteins in these tests, tags left out.
UniProt Q96SB4: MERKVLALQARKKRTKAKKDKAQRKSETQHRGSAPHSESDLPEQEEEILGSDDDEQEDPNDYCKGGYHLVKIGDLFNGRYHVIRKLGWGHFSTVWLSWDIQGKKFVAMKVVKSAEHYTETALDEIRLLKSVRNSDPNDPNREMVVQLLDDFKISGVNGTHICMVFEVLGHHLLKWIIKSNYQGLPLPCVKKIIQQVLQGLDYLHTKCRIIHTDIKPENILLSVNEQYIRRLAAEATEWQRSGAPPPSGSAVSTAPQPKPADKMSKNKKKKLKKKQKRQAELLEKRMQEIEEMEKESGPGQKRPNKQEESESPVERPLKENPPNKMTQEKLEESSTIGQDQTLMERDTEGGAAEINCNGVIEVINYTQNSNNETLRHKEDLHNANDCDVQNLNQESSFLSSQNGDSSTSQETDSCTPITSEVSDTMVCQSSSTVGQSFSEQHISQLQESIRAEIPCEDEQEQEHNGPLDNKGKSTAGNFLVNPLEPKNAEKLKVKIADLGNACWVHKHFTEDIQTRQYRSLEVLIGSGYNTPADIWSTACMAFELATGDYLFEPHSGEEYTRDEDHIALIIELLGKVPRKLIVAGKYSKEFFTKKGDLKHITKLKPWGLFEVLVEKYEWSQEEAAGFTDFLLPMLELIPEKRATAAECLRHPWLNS
UniProt P78362: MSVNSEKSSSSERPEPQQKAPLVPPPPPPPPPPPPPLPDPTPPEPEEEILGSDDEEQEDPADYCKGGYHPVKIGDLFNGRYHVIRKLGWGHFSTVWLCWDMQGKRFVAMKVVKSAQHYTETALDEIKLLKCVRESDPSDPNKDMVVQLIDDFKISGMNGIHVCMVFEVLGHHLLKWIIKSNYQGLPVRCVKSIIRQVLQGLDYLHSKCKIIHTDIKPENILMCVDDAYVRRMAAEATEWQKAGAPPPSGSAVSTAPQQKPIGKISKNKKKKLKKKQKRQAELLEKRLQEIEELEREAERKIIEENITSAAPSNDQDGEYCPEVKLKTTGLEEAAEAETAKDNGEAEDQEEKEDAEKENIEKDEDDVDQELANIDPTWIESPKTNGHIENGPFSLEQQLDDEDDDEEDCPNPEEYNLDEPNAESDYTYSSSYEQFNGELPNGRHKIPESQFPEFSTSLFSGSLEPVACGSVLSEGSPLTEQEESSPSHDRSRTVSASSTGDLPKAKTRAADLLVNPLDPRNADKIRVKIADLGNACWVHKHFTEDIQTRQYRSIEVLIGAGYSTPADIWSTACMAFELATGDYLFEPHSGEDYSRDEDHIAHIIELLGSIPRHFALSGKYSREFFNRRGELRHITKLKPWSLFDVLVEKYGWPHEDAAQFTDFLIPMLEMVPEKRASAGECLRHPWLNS
UniProt O43399: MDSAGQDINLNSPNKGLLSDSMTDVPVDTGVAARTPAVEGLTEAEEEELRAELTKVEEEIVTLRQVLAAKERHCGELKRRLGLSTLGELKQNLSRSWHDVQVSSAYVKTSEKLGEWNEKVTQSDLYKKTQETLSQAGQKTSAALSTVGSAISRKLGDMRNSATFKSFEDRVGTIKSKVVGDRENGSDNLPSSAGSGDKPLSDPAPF

T1: S/FLAG/SBP‐tagged TPD52 (UniProt P55327)
T1 sequence: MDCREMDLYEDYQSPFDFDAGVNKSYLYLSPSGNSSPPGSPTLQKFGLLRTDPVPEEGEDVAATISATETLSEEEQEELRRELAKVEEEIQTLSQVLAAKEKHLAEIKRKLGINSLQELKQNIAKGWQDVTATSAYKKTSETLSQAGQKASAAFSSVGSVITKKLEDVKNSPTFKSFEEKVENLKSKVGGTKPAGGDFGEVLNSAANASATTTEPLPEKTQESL

B1: TPD52L1 (protein, UniProt Q16890 1-204)
chain: MEAQAQGLLETEPLQGTDEDAVASADFSSMLSEEEKEELKAELVQLEDEITTLRQVLSAKERHLVEIKQKLGMNLMNELKQNFSKSWHDMQTTTAYKKTHETLSHAGQKATAAFSNVGTAISKKFGDMSYSIRHSISMPAMRNSPTFKSFEERVETTVTSLKTKVGGTNPNGGSFEEVLSSTAHASAQSLAGGSRRTKEEELQC

Target: T1, S/FLAG/SBP‐tagged TPD52
Assay: affinity purification with mass spectrometry; tandem affinity purification of S/FLAG/SBP-tagged TPD52 from HEK293T lysate (NETN buffer): streptavidin sepharose, elution with 2 mM biotin, S-protein agarose, 4°C; SDS-PAGE, mass spectrometry

Molecule | binding
SRPK1 (from UniProt Q96SB4 1-655) | binds
SRPK2 (from UniProt P78362 1-688) | binds
TPD52L2 (from UniProt O43399 1-206) | binds
B1 | binds

Results are given in words; binding and its absence hold for the method and conditions named. In cells and extracts the contact can be indirect. A yes stands for co-enrichment or nearness to the bait. Other partners may have been found. Where a sequence is shown, tags or fusion partners need not be part of it.
